From patent publication US20140377288A1 (University of Texas, published 2014)

Chains of the proteins cited; added tags and fusions are not shown. Lines headed by an entry give the natural chain unless they say otherwise; changes in a name come on top.
UniProt Q60629: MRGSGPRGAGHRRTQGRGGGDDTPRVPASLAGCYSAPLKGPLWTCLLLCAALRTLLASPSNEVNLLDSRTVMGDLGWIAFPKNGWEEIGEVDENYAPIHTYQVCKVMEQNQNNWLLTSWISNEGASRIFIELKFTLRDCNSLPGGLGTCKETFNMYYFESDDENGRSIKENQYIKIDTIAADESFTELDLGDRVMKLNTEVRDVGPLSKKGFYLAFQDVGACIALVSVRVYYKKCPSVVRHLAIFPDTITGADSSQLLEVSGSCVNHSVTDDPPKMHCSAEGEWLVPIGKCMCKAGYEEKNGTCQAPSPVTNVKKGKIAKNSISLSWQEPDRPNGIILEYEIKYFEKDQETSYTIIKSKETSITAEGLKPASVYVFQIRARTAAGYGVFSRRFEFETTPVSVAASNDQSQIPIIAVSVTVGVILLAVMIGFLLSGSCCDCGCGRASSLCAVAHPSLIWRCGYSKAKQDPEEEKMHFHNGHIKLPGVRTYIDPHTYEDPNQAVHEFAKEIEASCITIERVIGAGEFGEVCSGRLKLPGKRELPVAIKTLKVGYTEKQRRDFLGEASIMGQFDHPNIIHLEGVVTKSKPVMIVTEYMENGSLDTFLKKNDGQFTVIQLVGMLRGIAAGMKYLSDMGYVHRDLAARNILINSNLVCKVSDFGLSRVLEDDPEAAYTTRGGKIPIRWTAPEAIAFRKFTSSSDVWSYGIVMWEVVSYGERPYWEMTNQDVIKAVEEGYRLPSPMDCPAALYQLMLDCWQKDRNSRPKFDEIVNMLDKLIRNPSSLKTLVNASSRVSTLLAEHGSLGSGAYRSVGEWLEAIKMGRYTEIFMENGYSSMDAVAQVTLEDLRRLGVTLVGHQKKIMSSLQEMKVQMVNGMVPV

Molecular target: murine EphA5 protein (mouse) (UniProt Q60629)
Experiment: ELISA with decreasing amounts of target protein

binding: no binding
B1: 11C12 monoclonal anti-EphA5 antibody (antibody, mouse IgG1, V domains shown)
VH: EVTLKESGGGLVQPGGSRKLSCAASGFTFSTFGIHWVRQAPEKGLEWVAYISGASTTIYYADTVKGRFTISRDNPKNTLFLQMTSLRSEDTAMYYCARYGTSFPYGLDYWGQGTSVTVSS
VL: DIVMTQSPGSLAVSLGQRATISCKASQSVDYDGDSYMNWYQQKPGQPPKLLIYGASNLESGIPARFSGSGSGTDFTLNIHPVEEEDAASYYCQQSNEDPFTFGSGTKLEIK
notes: Murine IgG1 monoclonal antibody from a hybridoma; also called monoclonal antibody 11C12; 11C12 antibody

No constants are given. Whether binding was seen depends on the method and setting.
